Laboratory results as given in the supplement of paper PMC6411743.
± gives the standard deviation of the averaged measurements. The list shows a part of the results, in another mix than the full data.

By UniProt entry, the sequences of proteins in these tests, tags left out. Where a name states a change or a piece, a line headed by the entry shows the natural chain unless it says otherwise.
UniProt Q9Y262, whole entry: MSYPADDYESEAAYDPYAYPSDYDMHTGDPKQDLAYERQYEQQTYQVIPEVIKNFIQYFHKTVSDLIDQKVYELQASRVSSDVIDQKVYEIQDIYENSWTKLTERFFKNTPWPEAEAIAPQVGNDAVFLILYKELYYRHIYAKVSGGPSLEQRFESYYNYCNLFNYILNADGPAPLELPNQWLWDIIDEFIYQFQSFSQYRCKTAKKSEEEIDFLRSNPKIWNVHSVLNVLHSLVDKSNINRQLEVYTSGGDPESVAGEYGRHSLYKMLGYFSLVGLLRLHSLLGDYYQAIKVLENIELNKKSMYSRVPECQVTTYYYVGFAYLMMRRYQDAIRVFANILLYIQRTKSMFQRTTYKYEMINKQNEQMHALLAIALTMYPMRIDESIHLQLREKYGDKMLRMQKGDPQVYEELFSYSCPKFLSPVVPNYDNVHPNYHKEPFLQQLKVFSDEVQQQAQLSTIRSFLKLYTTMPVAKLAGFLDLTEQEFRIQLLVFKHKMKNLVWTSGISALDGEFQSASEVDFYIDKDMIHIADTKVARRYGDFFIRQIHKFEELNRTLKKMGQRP
UniProt A4D1U4: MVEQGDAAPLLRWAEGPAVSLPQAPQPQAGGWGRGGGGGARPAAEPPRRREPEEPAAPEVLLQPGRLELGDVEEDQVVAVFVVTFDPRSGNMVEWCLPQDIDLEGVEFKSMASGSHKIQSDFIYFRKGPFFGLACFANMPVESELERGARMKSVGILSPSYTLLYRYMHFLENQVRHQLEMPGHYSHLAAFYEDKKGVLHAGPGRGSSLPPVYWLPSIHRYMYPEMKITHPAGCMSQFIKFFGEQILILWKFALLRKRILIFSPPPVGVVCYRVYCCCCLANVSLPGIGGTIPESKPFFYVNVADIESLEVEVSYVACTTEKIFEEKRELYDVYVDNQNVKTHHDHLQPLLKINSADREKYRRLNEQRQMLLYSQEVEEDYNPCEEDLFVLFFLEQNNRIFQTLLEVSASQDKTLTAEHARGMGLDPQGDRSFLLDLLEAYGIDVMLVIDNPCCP
UniProt P55854, whole entry: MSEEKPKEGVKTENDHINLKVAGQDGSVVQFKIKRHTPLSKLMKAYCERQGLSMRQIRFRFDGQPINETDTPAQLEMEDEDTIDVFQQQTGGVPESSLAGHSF
UniProt A6NFI3: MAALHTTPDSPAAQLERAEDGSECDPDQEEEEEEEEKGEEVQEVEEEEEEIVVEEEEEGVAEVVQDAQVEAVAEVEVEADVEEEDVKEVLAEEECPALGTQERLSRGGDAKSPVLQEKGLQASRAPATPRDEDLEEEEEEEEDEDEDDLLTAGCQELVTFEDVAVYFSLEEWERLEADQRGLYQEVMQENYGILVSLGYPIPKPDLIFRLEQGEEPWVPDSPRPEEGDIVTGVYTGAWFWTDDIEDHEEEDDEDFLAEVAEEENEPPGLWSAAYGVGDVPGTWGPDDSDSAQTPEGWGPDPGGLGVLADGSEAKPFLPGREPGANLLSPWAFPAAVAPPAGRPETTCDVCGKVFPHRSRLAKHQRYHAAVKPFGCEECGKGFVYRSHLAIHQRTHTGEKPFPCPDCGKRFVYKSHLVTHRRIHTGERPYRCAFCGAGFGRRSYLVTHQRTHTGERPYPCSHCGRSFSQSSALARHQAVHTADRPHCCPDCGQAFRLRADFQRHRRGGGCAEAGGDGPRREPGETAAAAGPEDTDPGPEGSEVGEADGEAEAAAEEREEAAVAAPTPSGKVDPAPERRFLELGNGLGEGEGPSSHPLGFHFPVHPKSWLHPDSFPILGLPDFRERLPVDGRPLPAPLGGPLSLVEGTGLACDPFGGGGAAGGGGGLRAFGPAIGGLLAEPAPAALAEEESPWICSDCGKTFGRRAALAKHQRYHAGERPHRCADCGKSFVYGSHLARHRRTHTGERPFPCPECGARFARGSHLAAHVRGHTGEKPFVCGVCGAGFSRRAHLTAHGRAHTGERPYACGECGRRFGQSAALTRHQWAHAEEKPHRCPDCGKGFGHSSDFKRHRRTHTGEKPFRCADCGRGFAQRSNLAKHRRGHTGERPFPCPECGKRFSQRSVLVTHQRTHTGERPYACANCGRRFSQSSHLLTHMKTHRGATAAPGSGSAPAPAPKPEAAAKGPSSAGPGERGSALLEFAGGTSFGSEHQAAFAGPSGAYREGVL
UniProt A8MWD9, whole entry, looked up: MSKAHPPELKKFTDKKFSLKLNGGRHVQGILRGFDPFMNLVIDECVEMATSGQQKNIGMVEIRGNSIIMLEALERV
UniProt O00541, whole entry: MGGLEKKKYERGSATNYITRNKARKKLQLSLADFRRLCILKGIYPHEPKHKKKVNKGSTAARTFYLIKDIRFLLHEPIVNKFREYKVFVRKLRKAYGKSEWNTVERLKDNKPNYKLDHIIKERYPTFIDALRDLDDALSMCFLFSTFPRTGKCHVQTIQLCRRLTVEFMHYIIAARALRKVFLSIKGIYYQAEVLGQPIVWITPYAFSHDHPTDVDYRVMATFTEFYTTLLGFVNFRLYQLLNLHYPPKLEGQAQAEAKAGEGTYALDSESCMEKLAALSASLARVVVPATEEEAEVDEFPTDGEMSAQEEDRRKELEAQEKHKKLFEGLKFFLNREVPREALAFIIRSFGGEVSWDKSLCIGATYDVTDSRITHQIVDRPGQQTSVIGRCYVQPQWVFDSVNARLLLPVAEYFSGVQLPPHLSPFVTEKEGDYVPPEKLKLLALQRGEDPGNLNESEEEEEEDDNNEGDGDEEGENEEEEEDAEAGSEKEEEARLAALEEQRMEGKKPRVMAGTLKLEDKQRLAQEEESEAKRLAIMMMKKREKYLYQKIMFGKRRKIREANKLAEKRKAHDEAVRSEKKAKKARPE
UniProt C9JLW8: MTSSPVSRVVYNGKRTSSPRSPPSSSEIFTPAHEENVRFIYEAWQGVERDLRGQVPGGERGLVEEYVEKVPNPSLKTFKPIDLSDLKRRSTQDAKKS
UniProt Q15788: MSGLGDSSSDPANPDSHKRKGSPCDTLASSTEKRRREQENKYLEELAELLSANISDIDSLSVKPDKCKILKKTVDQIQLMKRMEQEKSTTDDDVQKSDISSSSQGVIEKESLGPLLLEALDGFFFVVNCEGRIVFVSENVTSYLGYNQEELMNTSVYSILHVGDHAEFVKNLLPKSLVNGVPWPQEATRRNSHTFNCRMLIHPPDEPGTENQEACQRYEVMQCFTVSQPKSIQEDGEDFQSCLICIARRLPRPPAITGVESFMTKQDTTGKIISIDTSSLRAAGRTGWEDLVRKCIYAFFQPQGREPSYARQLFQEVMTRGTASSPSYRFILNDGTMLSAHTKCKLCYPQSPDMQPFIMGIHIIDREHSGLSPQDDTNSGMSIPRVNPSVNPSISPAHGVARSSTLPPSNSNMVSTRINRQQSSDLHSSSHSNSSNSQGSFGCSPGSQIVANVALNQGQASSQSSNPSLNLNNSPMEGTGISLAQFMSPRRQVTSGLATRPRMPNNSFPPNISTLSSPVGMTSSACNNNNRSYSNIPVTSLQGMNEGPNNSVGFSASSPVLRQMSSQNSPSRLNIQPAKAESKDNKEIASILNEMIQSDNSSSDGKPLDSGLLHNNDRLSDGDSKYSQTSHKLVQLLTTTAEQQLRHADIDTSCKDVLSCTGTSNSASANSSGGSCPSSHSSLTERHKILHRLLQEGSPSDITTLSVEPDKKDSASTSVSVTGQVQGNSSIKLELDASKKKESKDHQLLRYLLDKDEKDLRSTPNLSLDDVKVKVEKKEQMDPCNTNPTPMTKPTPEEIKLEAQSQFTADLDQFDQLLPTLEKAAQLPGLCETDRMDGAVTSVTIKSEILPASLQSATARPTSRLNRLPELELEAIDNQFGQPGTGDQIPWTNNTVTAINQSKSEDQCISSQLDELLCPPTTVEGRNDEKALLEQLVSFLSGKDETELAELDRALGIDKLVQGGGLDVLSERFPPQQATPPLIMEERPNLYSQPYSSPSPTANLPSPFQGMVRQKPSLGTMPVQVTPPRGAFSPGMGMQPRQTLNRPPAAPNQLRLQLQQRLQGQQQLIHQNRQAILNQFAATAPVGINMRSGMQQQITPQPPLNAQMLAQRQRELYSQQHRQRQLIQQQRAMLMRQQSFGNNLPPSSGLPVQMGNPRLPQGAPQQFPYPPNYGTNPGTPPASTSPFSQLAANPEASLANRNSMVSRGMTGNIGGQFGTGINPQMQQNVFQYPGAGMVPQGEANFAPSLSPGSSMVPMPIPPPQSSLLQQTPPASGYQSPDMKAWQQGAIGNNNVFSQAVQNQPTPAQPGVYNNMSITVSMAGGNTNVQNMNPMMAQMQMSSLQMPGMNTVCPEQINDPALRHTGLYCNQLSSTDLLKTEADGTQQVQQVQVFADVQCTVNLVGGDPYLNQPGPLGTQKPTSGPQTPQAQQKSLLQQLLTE
UniProt P42892: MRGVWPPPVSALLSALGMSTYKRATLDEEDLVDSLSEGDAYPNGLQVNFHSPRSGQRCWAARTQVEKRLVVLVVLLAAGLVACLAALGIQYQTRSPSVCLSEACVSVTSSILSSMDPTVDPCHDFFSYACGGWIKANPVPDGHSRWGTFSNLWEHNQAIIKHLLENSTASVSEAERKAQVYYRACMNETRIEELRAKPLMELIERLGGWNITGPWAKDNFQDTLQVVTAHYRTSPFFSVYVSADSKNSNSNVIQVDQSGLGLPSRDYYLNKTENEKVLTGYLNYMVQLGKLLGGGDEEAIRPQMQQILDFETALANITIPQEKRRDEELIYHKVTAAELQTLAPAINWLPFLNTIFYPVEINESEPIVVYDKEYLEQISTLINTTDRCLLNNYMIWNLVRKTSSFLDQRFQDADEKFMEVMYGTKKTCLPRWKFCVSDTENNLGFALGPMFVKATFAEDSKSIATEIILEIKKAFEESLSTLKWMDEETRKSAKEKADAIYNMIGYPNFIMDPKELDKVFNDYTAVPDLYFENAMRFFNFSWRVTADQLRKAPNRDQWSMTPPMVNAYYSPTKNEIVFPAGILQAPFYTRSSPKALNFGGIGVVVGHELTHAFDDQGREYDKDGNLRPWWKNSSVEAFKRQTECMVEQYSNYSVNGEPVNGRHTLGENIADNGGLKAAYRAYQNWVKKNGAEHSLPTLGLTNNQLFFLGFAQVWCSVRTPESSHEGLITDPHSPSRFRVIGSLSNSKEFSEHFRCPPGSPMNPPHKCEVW
UniProt P78330: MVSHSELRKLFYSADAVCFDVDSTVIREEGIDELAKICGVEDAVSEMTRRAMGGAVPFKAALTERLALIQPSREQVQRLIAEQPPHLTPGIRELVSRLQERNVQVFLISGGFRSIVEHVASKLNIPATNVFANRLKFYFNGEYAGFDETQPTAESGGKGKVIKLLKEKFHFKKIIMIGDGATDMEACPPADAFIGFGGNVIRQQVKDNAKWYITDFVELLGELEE
UniProt O14730: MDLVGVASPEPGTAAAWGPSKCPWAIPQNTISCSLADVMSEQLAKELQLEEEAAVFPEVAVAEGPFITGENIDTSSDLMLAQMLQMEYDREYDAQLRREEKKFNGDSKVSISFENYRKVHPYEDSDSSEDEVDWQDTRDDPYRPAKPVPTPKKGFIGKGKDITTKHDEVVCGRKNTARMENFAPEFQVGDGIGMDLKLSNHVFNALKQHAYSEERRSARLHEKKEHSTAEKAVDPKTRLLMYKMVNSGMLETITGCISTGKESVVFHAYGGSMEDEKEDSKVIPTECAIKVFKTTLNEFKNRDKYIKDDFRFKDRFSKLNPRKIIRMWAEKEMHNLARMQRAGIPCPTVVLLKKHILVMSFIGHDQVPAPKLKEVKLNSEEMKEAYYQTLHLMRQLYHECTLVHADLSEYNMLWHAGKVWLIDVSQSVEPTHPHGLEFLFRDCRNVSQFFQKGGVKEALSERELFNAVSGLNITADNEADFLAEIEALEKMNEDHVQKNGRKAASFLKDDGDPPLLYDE
UniProt Q8N3C7: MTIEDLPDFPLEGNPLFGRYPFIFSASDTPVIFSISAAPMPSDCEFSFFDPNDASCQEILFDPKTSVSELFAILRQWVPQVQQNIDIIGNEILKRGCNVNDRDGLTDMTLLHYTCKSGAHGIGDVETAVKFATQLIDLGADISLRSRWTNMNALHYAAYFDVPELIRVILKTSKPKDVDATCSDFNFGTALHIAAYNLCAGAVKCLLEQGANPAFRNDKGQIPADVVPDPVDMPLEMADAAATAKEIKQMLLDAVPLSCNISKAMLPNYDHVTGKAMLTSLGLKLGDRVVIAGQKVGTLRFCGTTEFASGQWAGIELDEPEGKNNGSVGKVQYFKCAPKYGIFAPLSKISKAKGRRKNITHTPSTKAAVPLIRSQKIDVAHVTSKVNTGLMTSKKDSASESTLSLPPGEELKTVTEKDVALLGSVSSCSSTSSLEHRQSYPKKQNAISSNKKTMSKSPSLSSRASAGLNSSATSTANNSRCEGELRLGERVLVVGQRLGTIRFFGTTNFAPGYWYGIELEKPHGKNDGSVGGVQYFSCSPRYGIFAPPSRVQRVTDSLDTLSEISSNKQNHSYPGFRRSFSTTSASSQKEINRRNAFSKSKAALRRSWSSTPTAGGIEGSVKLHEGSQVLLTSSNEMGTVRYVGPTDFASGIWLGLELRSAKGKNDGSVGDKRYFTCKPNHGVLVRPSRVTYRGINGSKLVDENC

Compound: Nc1ncnc2c1ncn2[C@@H]1O[C@H](COP(=O)(O)OP(=O)(O)NP(=O)(O)O)[C@@H](O)[C@H]1O [adenylyl imidodiphosphate]
Experiment: NP40-soluble protein abundance relative to vehicle (solubility fold change) (ratio); higher = more soluble protein in presence of AMP-PNP
How it was run: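 Each value is a fold change relative to the detergent-processed vehicle, calculated per replicate from vsn-normalised intensities. Jurkat crude lysate received eight concentrations (0.1 to 10 mM) for 10 min at room temperature and 3 min at 37 °C, then was solubilised in 0.8% NP40 with benzonase (60 min, 4 °C). The ultracentrifuged supernatant was TMT-labelled and run by LC-MS/MS in three independent experiments.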

Target | NP40-soluble protein abundance (concentration: 1mM) | NP40-soluble protein abundance (concentration: 2mM) | NP40-soluble protein abundance (concentration: 4mM) | NP40-soluble protein abundance (concentration: 6mM) | NP40-soluble protein abundance (concentration: 8mM) | NP40-soluble protein abundance (concentration: 10mM)
UniProt A2RU67 | 0.9918 ± 0.004 | 1.03 ± 0.031 | 1.02 ± 0.021 | 1 ± 0.019 | 1 ± 0.017 | 1.03 ± 0.016
C9J6N9 and related entries (UniProt Q92890) | 0.9726 ± 0.0078 | 0.962 ± 0.019 | 0.965 ± 0.029 | 1 ± 0.034 | 1.02 ± 0.041 | 1 ± 0.019
UniProt A4D161 and related entries | 0.998 ± 0.025 | 1.01 ± 0.019 | 1.03 ± 0.025 | 1.02 ± 0.023 | 1 ± 0.018 | 1 ± 0.039
B0QY89 and related entries (UniProt Q9Y262) | 1 ± 0.031 | 0.976 ± 0.095 | 1.03 ± 0.12 | 1.12 ± 0.12 | 1.22 ± 0.17 | 1.24 ± 0.25
KIAA1147 (UniProt A4D1U4) | 1.04 ± 0.028 | 1.03 ± 0.041 | 1.02 ± 0.032 | 0.993 ± 0.018 | 1 ± 0.034 | 0.994 ± 0.013
D6R9Q5 and related entries (UniProt Q9UM13) | 0.999 ± 0.022 | 0.972 ± 0.018 | 1.01 ± 0.021 | 1.01 ± 0.04 | 1.01 ± 0.042 | 0.981 ± 0.042
A8MU27 and related entries (UniProt P55854) | 1 ± 0.011 | 0.979 ± 0.037 | 0.946 ± 0.048 | 0.91 ± 0.033 | 0.897 ± 0.018 | 0.892 ± 0.063
A8MXF6 and related entries (UniProt Q9UNT1+Q9UBK7+B7ZBD5+A8MXF6) | 0.976 ± 0.05 | 1 ± 0.069 | 0.954 ± 0.019 | 0.977 ± 0.051 | 0.973 ± 0.048 | 0.954 ± 0.065
UniProt A3KMH1 and related entries | 0.93 ± 0.024 | 0.858 ± 0.098 | 0.933 ± 0.025 | 0.874 ± 0.035 | 0.879 ± 0.017 | 0.8557 ± 0.0057
C9IY40 and related entries (UniProt Q5T653) | 0.972 ± 0.051 | 0.951 ± 0.034 | 0.966 ± 0.037 | 0.955 ± 0.038 | 0.962 ± 0.057 | 0.966 ± 0.059
ZNF316 (UniProt A6NFI3) | 1.01 ± 0.046 | 1.01 ± 0.058 | 0.975 ± 0.076 | 0.971 ± 0.051 | 0.974 ± 0.046 | 0.98 ± 0.06
A8MWD9 and related entries (UniProt P62308+A8MWD9) | 1.05 ± 0.012 | 1.08 ± 0.0011 | 1.12 ± 0.021 | 1.15 ± 0.021 | 1.26 ± 0.035 | 1.28 ± 0.055
B7Z9C2 and related entries (UniProt P55209) | 1.03 ± 0.05 | 1.01 ± 0.045 | 1.03 ± 0.052 | 1.01 ± 0.015 | 1.02 ± 0.025 | 1.02 ± 0.024
B1ANH0 and related entries (UniProt Q16774) | 1.01 ± 0.028 | 1.02 ± 0.032 | 0.979 ± 0.037 | 1.07 ± 0.071 | 1.06 ± 0.065 | 1.03 ± 0.079
B5MCF9 and related entries (UniProt O00541) | 1.04 ± 0.011 | 1.02 ± 0.026 | 0.996 ± 0.015 | 0.999 ± 0.019 | 0.965 ± 0.033 | 1 ± 0.021
UniProt C9JLW8 and related entries | 1.01 ± 0.055 | 0.988 ± 0.059 | 1.005 ± 0.01 | 0.9847 ± 0.0018 | 0.983 ± 0.037 | 0.966 ± 0.012
UniProt B4DLN1 | 0.9789 ± 0.0093 | 0.906 ± 0.044 | 0.961 ± 0.045 | 0.938 ± 0.059 | 0.993 ± 0.038 | 0.932 ± 0.049
B5MCN7 and related entries (UniProt Q15788) | 0.977 ± 0.043 | 0.988 ± 0.018 | 0.994 ± 0.024 | 0.983 ± 0.032 | 0.982 ± 0.035 | 0.982 ± 0.024
C9JEJ2 and related entries (UniProt P49585) | 1.01 ± 0.028 | 1.02 ± 0.022 | 1.02 ± 0.015 | 0.993 ± 0.027 | 1 ± 0.02 | 0.996 ± 0.01
B0YIW6 and related entries (UniProt P48444) | 0.98 ± 0.015 | 0.931 ± 0.045 | 0.949 ± 0.01 | 0.9391 ± 0.0089 | 0.9554 ± 0.0037 | 0.921 ± 0.017
C9JIZ6 and related entries (UniProt P07602) | 0.999 ± 0.042 | 1.1 ± 0.07 | 0.984 ± 0.045 | 0.966 ± 0.018 | 0.922 ± 0.024 | 0.943 ± 0.067
B4DKB2 and related entries (UniProt P42892) | 1.02 ± 0.019 | 1.04 ± 0.064 | 1.02 ± 0.058 | 1.04 ± 0.028 | 1.02 ± 0.027 | 1.05 ± 0.034
C9JBI3 and related entries (UniProt P78330) | 1.03 ± 0.046 | 1.04 ± 0.048 | 1.03 ± 0.049 | 0.988 ± 0.017 | 0.965 ± 0.017 | 0.991 ± 0.036
B4E1Q4 and related entries (UniProt O14730) | 0.976 ± 0.017 | 0.963 ± 0.011 | 0.957 ± 0.0051 | 0.933 ± 0.036 | 0.949 ± 0.048 | 0.929 ± 0.05
D6RD24 and related entries (UniProt Q7Z6J8) | 0.984 ± 0.033 | 1.01 ± 0.01 | 1 ± 0.027 | 0.993 ± 0.027 | 0.995 ± 0.021 | 0.994 ± 0.016
D6RG18 and related entries (UniProt P51946) | 1.07 ± 0.077 | 1.04 ± 0.022 | 1.04 ± 0.053 | 1.04 ± 0.018 | 1.07 ± 0.049 | 1.07 ± 0.018
B4DEM9 and related entries (UniProt Q9Y2S7) | 0.969 ± 0.048 | 0.916 ± 0.047 | 0.961 ± 0.039 | 0.942 ± 0.029 | 0.961 ± 0.029 | 0.927 ± 0.038
D3YTB1 and related entries (UniProt P62910) | 1.01 ± 0.047 | 1.02 ± 0.062 | 0.995 ± 0.092 | 0.978 ± 0.059 | 0.835 ± 0.11 | 0.993 ± 0.093
B5MCH3 and related entries (UniProt Q8N3C7) | 0.968 ± 0.019 | 0.981 ± 0.051 | 0.96 ± 0.013 | 0.952 ± 0.053 | 0.996 ± 0.054 | 0.9791 ± 0.0056
C9J712 and related entries (UniProt P35080) | 1.01 ± 0.053 | 1.08 ± 0.1 | 1.02 ± 0.093 | 1.16 ± 0.11 | 1.16 ± 0.091 | 1.21 ± 0.066

In another format: entries from further up
Target	NP40-soluble protein abundance (concentration: 1mM)	NP40-soluble protein abundance (concentration: 2mM)	NP40-soluble protein abundance (concentration: 4mM)	NP40-soluble protein abundance (concentration: 6mM)	NP40-soluble protein abundance (concentration: 8mM)	NP40-soluble protein abundance (concentration: 10mM)
D6R9Q5 and related entries (UniProt Q9UM13)	0.999 ± 0.022	0.972 ± 0.018	1.01 ± 0.021	1.01 ± 0.04	1.01 ± 0.042	0.981 ± 0.042
A8MU27 and related entries (UniProt P55854)	1 ± 0.011	0.979 ± 0.037	0.946 ± 0.048	0.91 ± 0.033	0.897 ± 0.018	0.892 ± 0.063
